This note sets out measurements from PMC10042887.

The chains behind the UniProt entries cited, without tags or fusion partners.
UniProt O15169: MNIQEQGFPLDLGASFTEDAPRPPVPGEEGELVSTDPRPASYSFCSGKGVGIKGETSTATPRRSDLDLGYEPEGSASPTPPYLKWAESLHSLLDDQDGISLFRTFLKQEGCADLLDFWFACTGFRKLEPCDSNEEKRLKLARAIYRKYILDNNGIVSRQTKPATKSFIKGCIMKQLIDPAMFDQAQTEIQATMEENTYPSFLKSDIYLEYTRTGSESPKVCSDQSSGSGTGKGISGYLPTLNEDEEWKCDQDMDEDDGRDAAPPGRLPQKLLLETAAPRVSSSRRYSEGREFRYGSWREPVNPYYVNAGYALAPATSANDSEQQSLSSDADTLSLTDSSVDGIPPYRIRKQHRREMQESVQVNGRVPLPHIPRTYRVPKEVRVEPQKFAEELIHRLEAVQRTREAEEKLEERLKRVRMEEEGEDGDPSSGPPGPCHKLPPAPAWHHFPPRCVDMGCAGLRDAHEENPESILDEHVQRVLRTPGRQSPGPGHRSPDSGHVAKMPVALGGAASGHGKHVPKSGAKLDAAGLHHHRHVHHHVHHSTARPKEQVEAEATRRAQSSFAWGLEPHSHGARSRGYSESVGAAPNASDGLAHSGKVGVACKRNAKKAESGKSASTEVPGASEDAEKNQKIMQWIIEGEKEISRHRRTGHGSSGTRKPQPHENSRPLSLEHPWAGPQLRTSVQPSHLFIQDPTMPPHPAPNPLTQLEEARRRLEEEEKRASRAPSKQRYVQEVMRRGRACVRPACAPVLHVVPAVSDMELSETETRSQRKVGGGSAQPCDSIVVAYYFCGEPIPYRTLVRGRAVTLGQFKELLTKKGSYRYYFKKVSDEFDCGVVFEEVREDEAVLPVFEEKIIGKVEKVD
UniProt P48729: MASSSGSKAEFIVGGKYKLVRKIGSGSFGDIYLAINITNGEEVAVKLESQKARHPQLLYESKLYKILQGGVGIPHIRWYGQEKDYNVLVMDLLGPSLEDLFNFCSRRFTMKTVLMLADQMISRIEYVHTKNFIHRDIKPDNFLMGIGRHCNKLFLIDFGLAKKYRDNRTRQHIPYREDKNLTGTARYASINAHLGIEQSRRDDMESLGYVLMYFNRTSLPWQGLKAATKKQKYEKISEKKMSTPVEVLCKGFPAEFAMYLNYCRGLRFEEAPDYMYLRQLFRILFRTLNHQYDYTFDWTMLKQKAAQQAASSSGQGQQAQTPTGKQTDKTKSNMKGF
UniProt P14651: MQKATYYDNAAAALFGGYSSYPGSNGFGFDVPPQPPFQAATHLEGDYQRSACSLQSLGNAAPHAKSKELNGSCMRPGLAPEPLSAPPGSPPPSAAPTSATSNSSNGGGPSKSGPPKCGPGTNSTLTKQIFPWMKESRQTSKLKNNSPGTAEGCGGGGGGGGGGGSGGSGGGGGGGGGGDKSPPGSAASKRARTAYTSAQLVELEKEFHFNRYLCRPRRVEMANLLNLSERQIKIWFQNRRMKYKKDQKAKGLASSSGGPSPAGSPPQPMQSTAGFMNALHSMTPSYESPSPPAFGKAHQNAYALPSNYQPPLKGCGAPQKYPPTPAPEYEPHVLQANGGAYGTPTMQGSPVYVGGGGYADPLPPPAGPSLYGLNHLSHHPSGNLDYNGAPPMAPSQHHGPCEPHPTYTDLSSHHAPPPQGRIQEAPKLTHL
UniProt P35222: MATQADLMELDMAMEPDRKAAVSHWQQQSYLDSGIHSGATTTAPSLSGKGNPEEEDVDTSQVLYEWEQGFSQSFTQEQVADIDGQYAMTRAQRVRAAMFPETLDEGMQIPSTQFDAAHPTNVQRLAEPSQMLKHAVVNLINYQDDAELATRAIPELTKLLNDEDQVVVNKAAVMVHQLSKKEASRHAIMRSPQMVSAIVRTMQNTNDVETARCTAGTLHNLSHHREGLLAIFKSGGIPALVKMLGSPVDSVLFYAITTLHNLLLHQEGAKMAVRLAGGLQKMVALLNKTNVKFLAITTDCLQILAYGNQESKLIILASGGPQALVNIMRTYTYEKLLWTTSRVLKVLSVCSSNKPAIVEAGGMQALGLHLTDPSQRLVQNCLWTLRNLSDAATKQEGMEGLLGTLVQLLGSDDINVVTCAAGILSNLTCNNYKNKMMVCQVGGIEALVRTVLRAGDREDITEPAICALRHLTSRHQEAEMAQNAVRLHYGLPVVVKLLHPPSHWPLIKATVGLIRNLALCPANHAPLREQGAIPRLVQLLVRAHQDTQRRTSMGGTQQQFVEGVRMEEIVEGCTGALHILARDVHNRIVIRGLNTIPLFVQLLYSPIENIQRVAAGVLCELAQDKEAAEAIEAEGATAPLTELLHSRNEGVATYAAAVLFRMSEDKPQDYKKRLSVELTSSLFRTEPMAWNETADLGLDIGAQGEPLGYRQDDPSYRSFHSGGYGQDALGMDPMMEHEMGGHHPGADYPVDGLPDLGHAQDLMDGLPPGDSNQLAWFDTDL

For test [1], the target named is AXIN1 (human (endogenous in LNCaP-AI)) (UniProt O15169). Kind of test: co-IP; endogenous proteins of LNCaP-AI lysate (5 mM HEPES pH 7.4, 150 mM NaCl, 1% Triton X-100, 1 mM EDTA); 500 μg protein with 2–3 μg antibody to HOXB3, AXIN1 or CKIα overnight at 4 °C, protein A beads, Western blot; cells with or without WNT3A (time course for CKIα IP) or after siRNA to HOXB3, IKKβ, CKIα or GSK3 (complex weakened after CKIα deletion).

Test [2] has as its target casein kinase Iα (CKIα) (human (endogenous in LNCaP-AI)) (UniProt P48729). Described as above.
Test [3] has as its target HOXB3 (human (endogenous in LNCaP-AI)) (UniProt P14651). The description is as above.
The target of test [4] is GST-HOXB3 (full-length) (human) (UniProt P14651). In words: pull-down; beads with purified GST-HOXB3 (full-length or truncated) incubated 3 h with 35S-methionine-labeled in vitro-translated AXIN1 in binding buffer (HEPES pH 7.9, 5 mM EDTA, 0.4 M KCl, 0.4% NP40, 1 mM DTT, 10% glycerol); 4 washes; autoradiography; only the target purified.

These are yes or no findings as the source states them, for the method shown. Binding seen in cells or lysates may run through a third protein. Some results given as binding are weak or reduced against the parent protein; the word gives no strength.

As to HOXB3 (from UniProt P14651 1-431), the binding result in test [1] and in test [2] was “binds” in each case. Consider AXIN1 (from UniProt O15169 1-862), for which the binding result in test [3] and in test [2] was “binds” each time. With β-catenin (from UniProt P35222 1-781), the binding entry in test [1] is on record as “binds”. Take “35S-methionine-labeled in vitro-translated AXIN1 (from UniProt O15169 1-862)”: the binding result in test [4] is recorded as “binds”.
